Measured values taken from paper doi:10.1101/2024.09.19.613899.
No constants are given. Whether binding was seen depends on the method and setting. In cells and extracts the contact can be indirect. A yes stands for co-enrichment or nearness to the bait. Other partners may have been found.

Sequences of proteins named here, by UniProt entry; tags and fusion partners are left off.
UniProt F1N4J1: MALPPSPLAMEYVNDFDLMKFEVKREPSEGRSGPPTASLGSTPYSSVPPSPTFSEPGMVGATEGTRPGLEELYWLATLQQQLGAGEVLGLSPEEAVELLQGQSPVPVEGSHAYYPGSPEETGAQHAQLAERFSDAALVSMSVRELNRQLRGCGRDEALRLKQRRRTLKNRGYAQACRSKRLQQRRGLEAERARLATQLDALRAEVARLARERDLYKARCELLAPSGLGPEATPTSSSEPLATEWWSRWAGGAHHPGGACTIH
UniProt P54845: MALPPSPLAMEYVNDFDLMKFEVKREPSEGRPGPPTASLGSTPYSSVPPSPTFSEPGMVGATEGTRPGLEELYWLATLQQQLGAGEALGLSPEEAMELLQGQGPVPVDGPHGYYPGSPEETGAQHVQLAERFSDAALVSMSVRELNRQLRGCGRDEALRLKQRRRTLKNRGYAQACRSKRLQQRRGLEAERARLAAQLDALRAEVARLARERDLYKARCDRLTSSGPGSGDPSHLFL
UniProt P54846: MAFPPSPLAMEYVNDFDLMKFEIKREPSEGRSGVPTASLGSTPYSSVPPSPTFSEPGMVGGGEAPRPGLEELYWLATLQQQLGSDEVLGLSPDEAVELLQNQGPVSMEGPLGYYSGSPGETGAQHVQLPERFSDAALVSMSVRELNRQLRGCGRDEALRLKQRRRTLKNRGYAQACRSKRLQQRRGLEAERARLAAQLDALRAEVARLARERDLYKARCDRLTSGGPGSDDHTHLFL
UniProt A0A3Q1M155: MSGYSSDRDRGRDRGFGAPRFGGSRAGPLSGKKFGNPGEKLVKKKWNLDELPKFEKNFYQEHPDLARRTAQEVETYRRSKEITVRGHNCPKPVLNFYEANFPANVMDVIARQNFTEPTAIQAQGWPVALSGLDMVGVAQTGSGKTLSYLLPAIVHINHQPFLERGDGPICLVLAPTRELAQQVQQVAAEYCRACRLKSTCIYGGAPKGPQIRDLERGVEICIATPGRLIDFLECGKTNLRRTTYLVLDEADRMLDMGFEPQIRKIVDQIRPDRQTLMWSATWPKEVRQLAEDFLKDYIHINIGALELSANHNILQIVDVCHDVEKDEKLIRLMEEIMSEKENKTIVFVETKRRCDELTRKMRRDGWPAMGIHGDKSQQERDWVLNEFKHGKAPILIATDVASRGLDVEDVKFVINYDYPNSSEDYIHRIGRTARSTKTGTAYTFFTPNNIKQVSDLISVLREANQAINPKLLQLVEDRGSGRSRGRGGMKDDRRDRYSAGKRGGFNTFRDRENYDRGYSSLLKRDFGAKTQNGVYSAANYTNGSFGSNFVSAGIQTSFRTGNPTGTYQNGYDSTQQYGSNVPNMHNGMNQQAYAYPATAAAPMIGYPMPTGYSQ
UniProt Q2HJ60: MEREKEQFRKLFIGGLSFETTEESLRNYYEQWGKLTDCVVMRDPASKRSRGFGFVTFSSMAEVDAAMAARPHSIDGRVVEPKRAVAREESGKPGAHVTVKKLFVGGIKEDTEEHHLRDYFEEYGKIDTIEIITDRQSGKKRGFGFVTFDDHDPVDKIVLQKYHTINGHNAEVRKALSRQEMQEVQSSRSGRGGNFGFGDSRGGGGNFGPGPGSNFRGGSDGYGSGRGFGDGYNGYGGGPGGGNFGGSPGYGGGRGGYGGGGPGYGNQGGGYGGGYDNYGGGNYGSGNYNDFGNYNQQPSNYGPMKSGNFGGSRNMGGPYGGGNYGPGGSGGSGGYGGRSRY
UniProt O70133: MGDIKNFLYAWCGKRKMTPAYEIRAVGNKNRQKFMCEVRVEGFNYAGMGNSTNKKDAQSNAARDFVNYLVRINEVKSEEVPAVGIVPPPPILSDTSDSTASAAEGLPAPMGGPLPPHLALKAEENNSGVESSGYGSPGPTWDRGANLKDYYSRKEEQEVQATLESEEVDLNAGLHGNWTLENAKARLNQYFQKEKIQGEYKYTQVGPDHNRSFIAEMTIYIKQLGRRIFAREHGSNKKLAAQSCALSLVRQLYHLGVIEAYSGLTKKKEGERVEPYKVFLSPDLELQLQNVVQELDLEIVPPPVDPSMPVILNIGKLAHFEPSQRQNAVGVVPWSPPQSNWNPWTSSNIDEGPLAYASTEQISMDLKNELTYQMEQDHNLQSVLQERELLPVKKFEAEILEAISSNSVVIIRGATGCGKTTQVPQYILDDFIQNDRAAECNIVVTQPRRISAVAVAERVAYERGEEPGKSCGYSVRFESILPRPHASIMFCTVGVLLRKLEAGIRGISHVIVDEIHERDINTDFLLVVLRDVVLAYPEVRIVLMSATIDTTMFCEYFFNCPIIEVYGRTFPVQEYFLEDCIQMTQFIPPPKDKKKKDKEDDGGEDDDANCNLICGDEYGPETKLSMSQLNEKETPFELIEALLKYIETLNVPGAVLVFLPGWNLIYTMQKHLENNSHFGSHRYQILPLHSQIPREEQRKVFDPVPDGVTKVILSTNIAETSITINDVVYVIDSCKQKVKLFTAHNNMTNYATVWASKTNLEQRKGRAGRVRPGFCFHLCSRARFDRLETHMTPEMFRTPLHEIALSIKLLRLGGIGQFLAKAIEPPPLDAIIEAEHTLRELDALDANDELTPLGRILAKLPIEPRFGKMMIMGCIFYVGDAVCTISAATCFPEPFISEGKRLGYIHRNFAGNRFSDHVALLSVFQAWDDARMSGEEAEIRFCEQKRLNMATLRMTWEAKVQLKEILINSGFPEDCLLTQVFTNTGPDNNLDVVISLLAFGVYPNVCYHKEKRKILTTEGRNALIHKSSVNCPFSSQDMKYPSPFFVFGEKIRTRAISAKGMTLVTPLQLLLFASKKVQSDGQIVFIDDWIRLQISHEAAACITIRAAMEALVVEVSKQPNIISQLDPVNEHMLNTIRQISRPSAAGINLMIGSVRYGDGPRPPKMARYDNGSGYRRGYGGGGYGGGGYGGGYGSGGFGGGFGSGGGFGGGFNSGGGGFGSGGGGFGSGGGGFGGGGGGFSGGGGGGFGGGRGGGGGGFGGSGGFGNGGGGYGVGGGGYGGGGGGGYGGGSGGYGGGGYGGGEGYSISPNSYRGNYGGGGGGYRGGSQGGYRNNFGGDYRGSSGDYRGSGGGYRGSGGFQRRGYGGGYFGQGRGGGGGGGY
UniProt Q28141: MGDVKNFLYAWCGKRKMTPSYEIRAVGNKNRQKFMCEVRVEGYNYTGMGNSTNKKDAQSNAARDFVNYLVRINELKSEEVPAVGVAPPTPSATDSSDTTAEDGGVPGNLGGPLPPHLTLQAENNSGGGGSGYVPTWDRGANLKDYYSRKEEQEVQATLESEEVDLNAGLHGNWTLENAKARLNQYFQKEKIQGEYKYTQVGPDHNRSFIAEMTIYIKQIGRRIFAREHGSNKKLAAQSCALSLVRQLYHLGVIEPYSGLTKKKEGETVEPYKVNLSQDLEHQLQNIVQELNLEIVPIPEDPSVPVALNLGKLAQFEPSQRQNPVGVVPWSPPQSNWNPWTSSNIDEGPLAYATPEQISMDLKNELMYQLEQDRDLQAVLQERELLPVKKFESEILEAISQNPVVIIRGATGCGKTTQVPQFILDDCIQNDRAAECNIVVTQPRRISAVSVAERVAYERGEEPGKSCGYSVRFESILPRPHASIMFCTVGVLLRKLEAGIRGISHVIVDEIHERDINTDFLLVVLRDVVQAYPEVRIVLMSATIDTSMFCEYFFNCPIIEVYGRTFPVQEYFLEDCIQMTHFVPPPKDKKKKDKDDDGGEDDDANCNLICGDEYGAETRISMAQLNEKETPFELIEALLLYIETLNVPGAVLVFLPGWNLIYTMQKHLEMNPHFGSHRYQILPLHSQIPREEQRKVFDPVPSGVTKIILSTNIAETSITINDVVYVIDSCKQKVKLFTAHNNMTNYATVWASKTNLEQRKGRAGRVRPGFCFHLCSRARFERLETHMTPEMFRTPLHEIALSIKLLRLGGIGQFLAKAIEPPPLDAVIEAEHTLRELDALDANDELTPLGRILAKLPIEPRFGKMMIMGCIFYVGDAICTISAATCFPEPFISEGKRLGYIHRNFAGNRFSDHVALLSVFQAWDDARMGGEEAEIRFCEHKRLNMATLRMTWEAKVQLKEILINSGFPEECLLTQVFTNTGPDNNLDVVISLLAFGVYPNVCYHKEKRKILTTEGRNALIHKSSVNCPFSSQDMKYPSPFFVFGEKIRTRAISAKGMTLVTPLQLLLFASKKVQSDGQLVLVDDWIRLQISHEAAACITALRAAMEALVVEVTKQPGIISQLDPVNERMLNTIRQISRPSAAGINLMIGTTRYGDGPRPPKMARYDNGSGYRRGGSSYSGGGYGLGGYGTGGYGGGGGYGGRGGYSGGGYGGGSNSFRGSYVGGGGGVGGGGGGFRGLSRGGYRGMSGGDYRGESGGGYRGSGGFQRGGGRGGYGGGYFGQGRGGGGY
UniProt P09867: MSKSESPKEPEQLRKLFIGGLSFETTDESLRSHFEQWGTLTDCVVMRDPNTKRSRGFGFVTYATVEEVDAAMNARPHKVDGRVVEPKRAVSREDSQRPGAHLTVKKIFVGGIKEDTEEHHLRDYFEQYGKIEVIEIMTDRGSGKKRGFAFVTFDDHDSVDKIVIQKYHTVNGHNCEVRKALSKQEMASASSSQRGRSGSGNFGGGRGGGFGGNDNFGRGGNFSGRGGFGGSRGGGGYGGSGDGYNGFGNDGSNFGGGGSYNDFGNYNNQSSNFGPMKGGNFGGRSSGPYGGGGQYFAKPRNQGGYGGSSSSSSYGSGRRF
UniProt Q9TTF0: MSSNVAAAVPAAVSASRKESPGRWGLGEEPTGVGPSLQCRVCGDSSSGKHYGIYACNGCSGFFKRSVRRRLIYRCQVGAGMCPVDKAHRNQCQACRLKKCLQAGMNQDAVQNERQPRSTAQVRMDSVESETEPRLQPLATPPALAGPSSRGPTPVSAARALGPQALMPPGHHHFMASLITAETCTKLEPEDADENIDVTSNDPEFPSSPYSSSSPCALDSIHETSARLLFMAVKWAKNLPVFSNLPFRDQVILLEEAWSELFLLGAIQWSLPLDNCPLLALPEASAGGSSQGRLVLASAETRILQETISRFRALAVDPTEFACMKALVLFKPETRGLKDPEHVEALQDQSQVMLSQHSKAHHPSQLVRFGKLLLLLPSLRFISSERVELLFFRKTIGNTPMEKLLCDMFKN
UniProt Q9XSK0: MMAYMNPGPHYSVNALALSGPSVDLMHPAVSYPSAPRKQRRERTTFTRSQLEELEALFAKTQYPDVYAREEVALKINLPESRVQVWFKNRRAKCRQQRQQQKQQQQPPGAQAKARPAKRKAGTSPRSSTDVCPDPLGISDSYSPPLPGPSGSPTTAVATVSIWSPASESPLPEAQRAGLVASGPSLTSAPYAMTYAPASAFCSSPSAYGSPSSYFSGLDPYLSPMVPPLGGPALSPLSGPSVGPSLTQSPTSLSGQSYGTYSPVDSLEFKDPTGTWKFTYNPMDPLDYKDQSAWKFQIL

Assays:
[1] = molecular target: NRL (bovine retina) (bovine (endogenous in bovine retina)) (UniProt F1N4J1); experiment: affinity purification with mass spectrometry; bovine retinal nuclear extract, Sephacryl S-300 peaks of 650 and 450 kDa containing NRL, immunoprecipitated with NRL antibody/protein A beads overnight at 4°C; LC-MS-MS; IgG control
[2] = molecular target: human NRL fused to GST (human) (UniProt P54845); experiment: affinity purification with mass spectrometry; GST-NRL on Glutathione Sepharose beads incubated 2 hr at 4°C with nuclear fraction from bovine retina; LC-MS-MS; n = 3, GST only as control; only the target purified
[3] = molecular target: NRL (mouse retina) (mouse (endogenous in mouse retina)) (UniProt P54846); experiment: affinity purification with mass spectrometry; NRL co-IP from mouse retina nuclear extracts; LC-MS-MS; n = 2, IgG control

Molecule | binding [1] | binding [2] | binding [3]
DDX5 (bovine retina) (from UniProt A0A3Q1M155 1-614) | binds |  | 
HNRNPA2B1 (bovine retina) (from UniProt Q2HJ60 1-341) |  | binds | 
DHX9 (mouse retina) (from UniProt O70133 1-1380) |  |  | binds
NonO/p54^nrb (bovine retina) (protein, UniProt Q2KJ42 1-470) MQSNKTFNLEKQNHTPRKHHQHHHQQHHQQQQQQPPPPPMPANGQQASSQNEGLTIDLKNFRKPGEKTFTQRSRLFVGNLPPDITEEEMRKLFEKYGKAGEVFIHKDKGFGFIRLETRTLAEIAKVELDNMPLRGKQLRVRFACHSASLTVRNLPQYVSNELLEEAFSVFGQVERAVVIVDDRGRPSGKGIVEFSGKPAARKALDRCSEGSFLLTTFPRPVTVEPMDQLDDEEGLPEKLVIKNQQFHKEREQPPRFAQPGSFEYEYAMRWKALIEMEKQQQDQVDRNIKEAREKLEMEMEAARHEHQVMLMRQDLMRRQEELRRMEELHNQEVQKRKQLELRQEEERRRREEEMRRQQEEMMRRQQEGFKGTFPDAREQEIRMGQMAMGGAMGINNRGAMPPAPVPAGTPAPPGPATMMPDGTLGLTPPTTERFGQAATMEGIGAIGGTPPAFNRAAPGAEFAPNKRRRY | binds |  | 

The next lines start with the values.

binding [1] | binding [2] | binding [3] | Molecule
binds | binds |  | DHX9 RNA helicase (bovine retina) (from UniProt Q28141 1-1287)
 | binds |  | HNRNPA1 (bovine retina) (from UniProt P09867 1-320)
binds |  |  | NR2E3 (bovine retina) (from UniProt Q9TTF0 1-411)
binds |  |  | CRX, cone rod homeobox (bovine retina) (from UniProt Q9XSK0 1-299)
